Results deposited as PubChem BioAssay AID504793 (Drosophila RNAi Screening Center, 2011).
In all, the deposit lists about 23,000 reagents; below is an unselected part of those that have a named target and a result. In the full data, 62 (0.27%) are marked active. 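Calls come from follow-up tests whose scores are not deposited, so confirmed genes may have low counts here; counts are not normalised per plate.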 Raw values are not corrected between plates. A number with no mark means an inactive call. The numbers tell different reagents against one gene apart. Names joined by + are all predicted targets of the reagent.

Test: 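Genes required for cells to halt at G2/M after double-strand DNA breaks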 (primary screen)
Cell system: Drosophila S2R+ cells
Reagent: long dsRNA against Drosophila genes, about 0.25 µg dsRNA per well
Time to read-out: 4 days of dsRNA, then 4 hours of drug before read-out
Conditions: doxorubicin 0.5 µM for 4 hours to cause double-strand breaks, in cells also given a low, harmless dose of dsRNA against nbs to sensitise the assay
Measurement: 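Per-well count of mitotic cells stained for phospho-histone H3 after doxorubicin exposure, used as mitotic index; counts are raw and not normalised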
Scale: mitotic cells: higher = more cells in mitosis, weaker G2 arrest
Active means: 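Genes are called active only when high mitotic counts were reproduced with independent dsRNAs and mitosis was checked for delay without damage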
Meaning of the calls: active = confirmed in follow-up tests; inactive = not confirmed

| target | reagent no. | mitotic cells, replicate 1 | mitotic cells, replicate 2 |
| --- | --- | --- | --- |
| CG10752 | 1 | 8 | – |
| CG1371 | 1 | 5 | – |
| CR31032 (pseudo) | 1 | 6 | – |
| CR31032 (pseudo) | 2 | 4 | – |
| CAH1 (Carbonic anhydrase 1) | 1 | 11 | – |
| LSm3 (Like Sm 3) | 1 | 13 | – |
| Sln (Silnoon) | 1 | 3 | – |
| Sln (Silnoon) | 2 | 7 | – |
| CG11878 | 1 | 10 | – |
| CG11878 | 2 | 17 | – |
| CG14852 | 1 | 4 | – |
| CG14852 | 2 | 1 | – |
| CG14229 | 1 | 9 | – |
| CG14229 | 2 | 10 | – |
| Sirt4 (Sirtuin 4) | 1 | 23 | – |
| Sirt4 (Sirtuin 4) | 2 | 4 | – |
| CG31740 | 1 | 4 | – |
| exp (expansion) | 1 | 8 | – |
| exp (expansion) | 2 | 3 | – |
| Ccp84Aa | 1 | 3 | – |
| Ccp84Aa | 2 | 13 | – |
| scyl (scylla) | 1 | 5 | – |
| scyl (scylla) | 2 | 3 | – |
| lectin-24A | 1 | 2 | – |
| CG7457 | 1 | 4 | – |
| CG7457 | 2 | 5 | – |
| CG32240 | 1 | 15 | – |
| Nup160 (Nucleoporin 160kD) | 1 | 3 | – |
| CG14770 | 1 | 6 | – |
| Arp53D (Actin-related protein 53D) | 1 | 4 | – |
| CG13751 | 1 | 5 | – |
| CG5646 | 1 | 5 | – |
| CG5646 | 2 | 9 | – |
| CG34210 | 1 | 5 | – |

A stretch taken from the entries so far, for reference:
| target | reagent no. | mitotic cells, replicate 1 | mitotic cells, replicate 2 |
| --- | --- | --- | --- |
| LSm3 (Like Sm 3) | 1 | 13 | – |
| Sln (Silnoon) | 1 | 3 | – |
| Sln (Silnoon) | 2 | 7 | – |
| CG11878 | 1 | 10 | – |
| CG11878 | 2 | 17 | – |
| CG14852 | 1 | 4 | – |
| CG14852 | 2 | 1 | – |
| CG14229 | 1 | 9 | – |
| CG14229 | 2 | 10 | – |

Additional results follow.
| target | reagent no. | mitotic cells, replicate 1 | mitotic cells, replicate 2 |
| --- | --- | --- | --- |
| Sar1 (Secretion-associated Ras-related 1) | 1 | 11 | – |
| Sar1 (Secretion-associated Ras-related 1) | 2 | 9 | – |
| Sar1 (Secretion-associated Ras-related 1) | 3 | 2 | – |
| ERR (estrogen-related receptor) | 1 | 6 | – |
| Snm1 | 1 | 4 | – |
| Nmd3 (Nonsense-mediated mRNA 3) | 1 | 6 | – |
| Nmd3 (Nonsense-mediated mRNA 3) | 2 | 6 | – |
| lncRNA:CR42862 + CG33229 | 1 | 3 | – |
| slou (slouch) | 1 | 15 | – |
| slou (slouch) | 2 | 11 | – |
| Naa30B (N(alpha)-acetyltransferase 30 B) | 1 | 3 | – |
| CG9304 | 1 | 1 | – |
| CG9304 | 2 | 8 | – |
| Zmynd10 (Zinc finger MYND-type containing 10) | 1 | 10 | – |
| Zmynd10 (Zinc finger MYND-type containing 10) | 2 | 6 | – |
| Tk (Tachykinin) | 1 | 8 | – |
| Tk (Tachykinin) | 2 | 6 | – |
| Tk (Tachykinin) | 3 | 3 | – |
| wuho | 1 | 13 | – |
| wuho | 2 | 8 | – |
| ATPsynCF6 (ATP synthase, coupling factor 6) | 1 | 11 | – |
| gus (gustavus) | 1 | 5 | – |
| gus (gustavus) | 2 | 6 | 11 |
| gus (gustavus) | 3 | 6 | – |
| CG7794 | 1 | 19 | – |
| Egm (Enigma) | 1 | 4 | – |
| Egm (Enigma) | 2 | 9 | – |
| CG10469 | 1 | 5 | – |
| CG10469 | 2 | 12 | – |
| ago (archipelago) | 1 | 4 | – |
| pnr (pannier) | 1 | 6 | – |
| pnr (pannier) | 2 | 7 | – |
| Dh44-R2 (Diuretic hormone 44 receptor 2) | 1 | 9 | – |
| Dh44-R2 (Diuretic hormone 44 receptor 2) | 2 | 3 | – |
| CG34155 | 1 | 4 | – |
| CG17271 | 1 | 10 | – |
| CG17271 | 2 | 14 | – |
| CG17271 | 3 | 5 | – |
| CG15876 | 1 | 6 | – |
| CG15876 | 2 | 10 | – |
| Prosap | 1 | 1 | – |
| Prosap | 2 | 11 | – |
